The experiment addresses Chk1 (Homo sapiens, UniProt O14757). The experiment is described as follows: HCIF-CETSA (CETSA by immunofluorescence), low well volume heating, HT29 cells. The following applies: EC50 by HCIF-CETSA or CETSA vs autophosphorylation IC50.

Sequences of proteins named here, by UniProt entry; tags and fusion partners are left off.
UniProt O14757, whole entry: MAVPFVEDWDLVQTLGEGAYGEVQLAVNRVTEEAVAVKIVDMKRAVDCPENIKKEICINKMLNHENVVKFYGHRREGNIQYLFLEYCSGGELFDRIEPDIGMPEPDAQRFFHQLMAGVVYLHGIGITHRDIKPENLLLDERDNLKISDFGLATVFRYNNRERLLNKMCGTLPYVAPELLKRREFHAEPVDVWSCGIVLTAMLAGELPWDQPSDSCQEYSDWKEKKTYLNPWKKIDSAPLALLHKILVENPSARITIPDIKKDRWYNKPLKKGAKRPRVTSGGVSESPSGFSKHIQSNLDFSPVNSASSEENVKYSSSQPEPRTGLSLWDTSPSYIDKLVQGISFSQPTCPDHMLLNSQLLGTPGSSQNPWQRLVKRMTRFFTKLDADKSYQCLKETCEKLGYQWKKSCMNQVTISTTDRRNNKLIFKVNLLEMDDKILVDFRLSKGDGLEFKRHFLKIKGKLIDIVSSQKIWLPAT

Each structure is given as a SMILES string. The source holds more than one record for some entries. Only these are listed. The source may hold further records. The values listed for one entry do not match, cause unknown; dose, time, organism, isomer or construct need not be as stated for each record.

The source of these data is paper PMC5884524, “A high content, high throughput cellular thermal stability assay for measuring drug-target engagement in living cells” (PLoS ONE, 2018).

Take `CN(C)CC(C)(C)COc1ccc2[nH]c(-c3cc(NC(=O)c4cnn(Cc5ccccc5)c4)c[nH]c3=O)cc2c1` [V158411]: the “Fold by which HCIF-CETSA / CETSA classic EC50 is greater than the autophosphorylation IC50” value was 23 fold and 12 fold.
